Here are results for one substance from patent US4133805A (American Home Products Corporation, priority 1975, dated 1979).

The data set can be described thus: general procedure: Boc solid-phase peptide synthesis; chloromethylated polystyrene resin (styrene with about 1 to 2% divinyl benzene). The settings on record: purification step, recovery from fraction D (700 mg).

HELM strings list residues between dots; [ac] is acetyl, [am] amide, other brackets name non-standard units.

“PEPTIDE1{[Ahp7].K.N.F.F.W.K.T.F.T.S}$PEPTIDE1,PEPTIDE1,1:R1-11:R2$$$V2.0”: the step yield worked out at 70% recovery.
